The text below walks through data of paper PMC5302413, “Bifunctional peptide-based opioid agonist/nociceptin antagonist ligand for dual treatment of nociceptive and neuropathic pain” (Pain, 2016).

Data set [1] has as its system Sprague-Dawley rats. Briefly: Hot-plate test, thermal nociception in rats. The format is in vivo, rat. Particulars: IV 17.52 μmol/kg morphine (vs controls), 0.34 μmol/kg KGNOP1 (vs morphine). The procedure: The individual rats were kept inside a transparent cylinder on the heated surface of the plate (52.0°C ± 0.2°C; Panlab).[27] Licking, brisk shaking of the hind paw, and jumping were considered as signs of thermal nociception. The cut-off time was set at 60 seconds. The first measurement was performed after a 10-minute period of accommodation while the animal was quiet. Drugs were intravenously (IV) administered at T0. Thermal nociception was recorded at −30, −15, −5, 5, 10, 15, 30, 45, 60, 90, 120, 180, 240, 300, 360, and 420 minutes (study 2A). […] The maximum possible effect (MPE%) was calculated based on the following equation: [drawing 2]
The pharmacological model was applied to the investigated drug effects using the maximum likelihood expectation maximization algorithm implemented in WinNonlin (Version 5.1; Pharsight, Princeton, NJ). A standard error variance model was defined as: [drawing 4] where yi is the ith predicted value from the pharmacological model. All model parameters were assumed to be log-normally distributed. […] Estimated parameters for dose–effect relationships are expressed as mean (CV%).
Thermal nociception was measured during 420 minutes after the drug administration. Tmax was determined for each drug. […]
A general note: Hot-plate and tail-flick tests time the reaction to a heat stimulus.

In data set [2] the test system is Sprague-Dawley rats. Description: Whole-body plethysmography, respiratory effects in rats. The settings on record: IV, time-course study 3A.

Structures can show the parent of a compound that is named as a salt.

Consider `CN1CC[C@]23c4c5ccc(O)c4O[C@H]2[C@@H](O)C=C[C@H]3[C@H]1C5` [Morphine, Morphine sulfate, reference compound], for which the “MPE%, AUC method” value in the data set on Sprague-Dawley rats [1] is listed as “significantly increased”. In addition, in the data set on Sprague-Dawley rats [2], the “Peak of respiratory effects (time)” value is 30 min and the “TI, AUC method, in comparison to controls” value is given as “significantly increased”.
